± gives the half width of the 95% confidence interval. For many entries, trypsin and chymotrypsin gave values far apart.
How the values were obtained:
[1] = folding stability dG unfold from trypsin proteolysis; higher = more stable
Outline: (§1)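 Designed mini-proteins (under 80 residues, no cysteine) in a PA-tagged cDNA display construct were digested with trypsin and chymotrypsin. Each protease was used at 11 concentrations (threefold dilutions) plus a no-protease condition, followed by sequencing. K50 was inferred by Bayesian fitting of sequencing counts, and unfolding free energy was derived against a sequence-predicted unfolded-state K50 and a shared folded-state K50, per protease or combined. Only designs with AlphaFold2 dimer inter-PAE above 15 were kept.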

[2] = folding stability dG unfold (combined trypsin and chymotrypsin); higher = more stable
Outline: as §1

[3] = folding stability dG unfold from chymotrypsin proteolysis; higher = more stable
Outline: as §1

Row | Sequence | folding stability dG unfold [1] [kcal/mol] | folding stability dG unfold [2] [kcal/mol] | folding stability dG unfold [3] [kcal/mol]
1 | SAGGSAGGSAGKIEAFPGKNTVLLKISIPRRDPNSDSIYTLHAVIPATPEQAKKFLELGISAGGSAGGSAGG [r11_389_TrMRF] | 0.89 ± 0.041 | 0.97 ± 0.1 | 0.899 ± 0.14
2 | SAGGSAGGMKIEPIAEDEDYIVVRVEPDLPELLEELGLEVVGVEEEGDYVIVVVKVPPEVREKFSAGGSAGG [r6_108_TrMRF] | 0.649 ± 0.022 | 0.336 ± 0.11 | -0.0352 ± 0.11
3 | SAGGSAMTPEEAKNIKVFNFKITVKAKKGDKIPNGKKLKEDEILKVEINIYVAPNGKIIGVDVKVSSAGGSA [r15_12_TrMRF] | 3.2 ± 0.13 | 5.23 ± 0.38 | 5.47 ± 0.24
4 | SAGGSKKLKPGETKEIEIDGKIYRIVVEDGKIHIYAKSAEELKEFLKKLPPNLKIVKVEEVSKEELSAGGSA [r2_418_TrROS_Hall] | 0.354 ± 0.14 | 2.22 ± 0.21 | 2.76 ± 0.12
5 | SAGGGYRVTFTLTHPDGKTATVTLEFESEEEARAAAEALARAEGWDLVTLTVTPVEPPPSPRPEREGSAGGS [r8_364_JUSTAS] | 1.97 ± 0.073 | 3.84 ± 0.12 | 4.29 ± 0.075
6 | SAGGSAGGSAGGPKIEVNEDGTVTITLEVDGKLVTKTVKVELEAPPVETVEFVKEGEEVSAGGSAGGSAGGS [r10_240_TrROS_Hall] | 0.822 ± 0.043 | 1.02 ± 0.077 | 1.21 ± 0.046
7 | SKKKVTININITPGDPEQMEENVRWAIKEAAENDPDKEVTITIHFPPGHPEWMRWIKELFTKKGIPITIHSA [r9_1202_TrROS] | 2.88 ± 0.042 | 3.16 ± 0.059 | 3.3 ± 0.037
8 | SAGGMTIFLPLENKEEVIEKLKKEGYKPVEVKEEGDVVTIKVEKKKDEKKEEITIVFYPPSKPEEPVSAGGS [r8_307_JUSTAS] | 2.77 ± 0.14 | 2.68 ± 0.1 | 2.59 ± 0.085
9 | SAGKYIMHPIKAGAEIKITIPPEGYRIKIGMYYPNGGKMEEHEVPIKPGKTLEFKIPDPNFFVMIEPEPSAG [r5_797_TrROS] | 0.984 ± 0.1 | 1.3 ± 0.26 | 1.57 ± 0.25
